Results: patent US20170260251A1
No constants are given. Whether binding was seen depends on the method and setting. Some entries that bind do so weakly or less than the wild type.

Chains of the proteins cited; added tags and fusions are not shown. Lines headed by an entry give the natural chain unless they say otherwise; changes in a name come on top. Residues count along the entry.
UniProt P03952, residues 20-638: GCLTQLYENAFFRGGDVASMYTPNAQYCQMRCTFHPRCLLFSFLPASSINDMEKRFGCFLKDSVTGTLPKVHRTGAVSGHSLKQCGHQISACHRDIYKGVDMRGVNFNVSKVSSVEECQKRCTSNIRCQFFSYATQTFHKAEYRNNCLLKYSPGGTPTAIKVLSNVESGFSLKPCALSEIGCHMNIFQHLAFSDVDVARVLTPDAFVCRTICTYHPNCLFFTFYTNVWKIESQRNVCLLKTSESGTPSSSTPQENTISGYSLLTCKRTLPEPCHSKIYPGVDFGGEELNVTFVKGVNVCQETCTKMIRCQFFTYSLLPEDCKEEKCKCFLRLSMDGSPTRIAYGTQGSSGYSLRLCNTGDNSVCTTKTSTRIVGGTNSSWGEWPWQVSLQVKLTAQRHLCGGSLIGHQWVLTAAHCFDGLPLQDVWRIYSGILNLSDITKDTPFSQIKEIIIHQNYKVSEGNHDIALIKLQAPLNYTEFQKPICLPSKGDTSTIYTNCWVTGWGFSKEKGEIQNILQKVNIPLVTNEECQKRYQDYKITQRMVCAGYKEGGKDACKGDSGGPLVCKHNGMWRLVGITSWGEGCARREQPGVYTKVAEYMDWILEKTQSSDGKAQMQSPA
UniProt A8A271: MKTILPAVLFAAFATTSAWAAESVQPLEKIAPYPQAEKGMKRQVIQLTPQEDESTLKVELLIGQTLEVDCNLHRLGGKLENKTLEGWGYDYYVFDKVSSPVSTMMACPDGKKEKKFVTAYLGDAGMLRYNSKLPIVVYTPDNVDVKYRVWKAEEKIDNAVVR

Assays:
human kallikrein (human) = human kallikrein (human) (UniProt P03952); test: sentence summing up the Ki results; species not given
[1] = target: T1, human coagulation factor XIIa (human) (UniProt P00748); test: as above
T1 sequence (looked up): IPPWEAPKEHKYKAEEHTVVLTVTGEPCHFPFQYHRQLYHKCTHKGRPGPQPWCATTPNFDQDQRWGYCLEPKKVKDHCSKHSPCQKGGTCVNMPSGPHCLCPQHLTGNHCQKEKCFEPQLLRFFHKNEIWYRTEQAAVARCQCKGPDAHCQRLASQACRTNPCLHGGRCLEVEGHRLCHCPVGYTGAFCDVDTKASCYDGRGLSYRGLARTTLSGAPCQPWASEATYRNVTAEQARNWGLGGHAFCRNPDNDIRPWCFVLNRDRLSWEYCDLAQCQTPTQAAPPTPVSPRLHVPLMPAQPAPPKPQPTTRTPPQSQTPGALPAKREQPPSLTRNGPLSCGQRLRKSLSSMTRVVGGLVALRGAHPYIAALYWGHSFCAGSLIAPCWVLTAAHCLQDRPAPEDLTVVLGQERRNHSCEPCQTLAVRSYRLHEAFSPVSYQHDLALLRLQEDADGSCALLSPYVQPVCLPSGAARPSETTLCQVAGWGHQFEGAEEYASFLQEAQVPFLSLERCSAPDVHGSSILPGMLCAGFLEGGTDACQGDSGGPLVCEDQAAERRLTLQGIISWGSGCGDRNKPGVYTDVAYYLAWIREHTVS

In the case of “Ecotin variant NB142 (M84R/V81R) (from UniProt A8A271 21-162)”, the binding (human kallikrein (human)) is reported as “binds”.
In the case of “wild type Ecotin (NB101) (from UniProt A8A271 21-162)”, the binding [1] is reported as “binds” and the binding (human kallikrein (human)) is reported as “binds”.
